From paper PMC5645467 come the findings set out here.

Amino acid sequences for entries named in this document (tags omitted). A change or cut given only in a name is not applied to a line headed by its entry. Residues count along the entry.
UniProt P18754: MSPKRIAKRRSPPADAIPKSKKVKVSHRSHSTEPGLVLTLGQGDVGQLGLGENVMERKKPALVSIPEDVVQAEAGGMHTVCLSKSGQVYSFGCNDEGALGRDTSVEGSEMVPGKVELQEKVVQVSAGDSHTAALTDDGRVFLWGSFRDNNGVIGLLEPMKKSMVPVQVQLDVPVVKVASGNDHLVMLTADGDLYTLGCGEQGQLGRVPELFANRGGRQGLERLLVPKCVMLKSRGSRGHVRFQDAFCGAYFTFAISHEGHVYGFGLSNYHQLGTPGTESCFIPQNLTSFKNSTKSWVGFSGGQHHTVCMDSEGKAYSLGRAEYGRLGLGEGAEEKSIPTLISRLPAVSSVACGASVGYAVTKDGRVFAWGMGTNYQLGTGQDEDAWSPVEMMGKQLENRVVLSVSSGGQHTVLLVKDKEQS
GST-RCC1-NLS (WT): residues 1-24 of P18754
UniProt O00629: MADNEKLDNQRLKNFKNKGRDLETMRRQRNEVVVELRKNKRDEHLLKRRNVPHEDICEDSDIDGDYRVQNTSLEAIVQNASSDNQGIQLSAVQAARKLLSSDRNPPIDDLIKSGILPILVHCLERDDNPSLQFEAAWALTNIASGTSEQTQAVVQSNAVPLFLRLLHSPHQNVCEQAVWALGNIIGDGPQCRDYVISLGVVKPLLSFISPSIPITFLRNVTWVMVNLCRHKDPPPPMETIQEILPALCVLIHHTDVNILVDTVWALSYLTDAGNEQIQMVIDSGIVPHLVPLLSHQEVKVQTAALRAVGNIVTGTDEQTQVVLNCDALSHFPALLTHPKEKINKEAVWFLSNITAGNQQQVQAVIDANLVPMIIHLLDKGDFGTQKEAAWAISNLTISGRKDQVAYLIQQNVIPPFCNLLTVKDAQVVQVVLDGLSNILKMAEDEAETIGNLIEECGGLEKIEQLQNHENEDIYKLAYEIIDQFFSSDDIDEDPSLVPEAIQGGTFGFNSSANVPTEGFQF
UniProt Q02821: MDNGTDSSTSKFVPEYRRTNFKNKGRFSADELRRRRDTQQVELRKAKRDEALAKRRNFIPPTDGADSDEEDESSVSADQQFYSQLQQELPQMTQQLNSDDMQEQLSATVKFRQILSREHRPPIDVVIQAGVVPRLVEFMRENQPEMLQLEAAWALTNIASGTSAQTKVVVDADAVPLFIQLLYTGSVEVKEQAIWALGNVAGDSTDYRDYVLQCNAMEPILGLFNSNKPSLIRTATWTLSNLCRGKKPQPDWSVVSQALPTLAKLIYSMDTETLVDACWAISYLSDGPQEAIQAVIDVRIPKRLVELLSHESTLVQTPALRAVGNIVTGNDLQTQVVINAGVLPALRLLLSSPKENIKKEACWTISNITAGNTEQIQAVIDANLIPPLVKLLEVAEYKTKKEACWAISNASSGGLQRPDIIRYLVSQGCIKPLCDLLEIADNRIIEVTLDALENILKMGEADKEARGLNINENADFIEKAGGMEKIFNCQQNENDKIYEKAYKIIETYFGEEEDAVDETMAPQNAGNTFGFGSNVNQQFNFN
UniProt P21827: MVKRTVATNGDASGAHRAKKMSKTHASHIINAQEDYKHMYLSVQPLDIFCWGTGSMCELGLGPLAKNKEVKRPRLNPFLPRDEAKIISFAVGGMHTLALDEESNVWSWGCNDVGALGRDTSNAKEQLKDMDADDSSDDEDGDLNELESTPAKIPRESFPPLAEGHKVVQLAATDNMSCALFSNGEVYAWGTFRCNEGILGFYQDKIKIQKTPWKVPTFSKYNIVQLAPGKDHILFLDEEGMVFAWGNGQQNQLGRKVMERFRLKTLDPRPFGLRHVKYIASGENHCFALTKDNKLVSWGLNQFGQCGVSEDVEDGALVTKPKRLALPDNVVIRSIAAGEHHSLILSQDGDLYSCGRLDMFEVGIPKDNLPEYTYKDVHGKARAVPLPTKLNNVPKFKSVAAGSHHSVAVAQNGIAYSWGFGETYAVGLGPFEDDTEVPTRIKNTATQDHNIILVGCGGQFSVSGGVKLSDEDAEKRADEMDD

Results are given in words; binding and its absence hold for the method and conditions named. A result given as binding can be weak or reduced; the word gives no strength.

The target of test [1] is GST-RCC1 (full-length human RCC1, wild type) (human) (UniProt P18754). As to the kind of experiment: pull-down; GST-RCC1 constructs (~[…]) pre-incubated with His-tagged ΔIBB-importin α1 or α3 (~1 µM), glutathione beads, eluted with reduced glutathione; SDS-PAGE, quantified, ΔIBB-importin α3 pulled down by GST-RCC1 = 100%; both purified.
The target of test [2] is GST-RCC1-NLS (WT) (human) (UniProt P18754). The test is described as above.
For test [3], the target named is untagged ΔIBB-importin α3 (co-expressed with GST-RCC1) (human) (UniProt O00629). As to the kind of experiment: crystal structure; co-expressed, purified complexes crystallised at 20 mg ml^-1; molecular replacement; both purified.
The target of test [4] is ΔIBB-Kap60 (co-expressed with yeast GST-RCC1) (Saccharomyces cerevisiae) (UniProt Q02821). Described as above.
Test [5] addresses GST-ΔIBB-Kap60 (Saccharomyces cerevisiae) (UniProt Q02821). The test is described as follows: pull-down; purified GST-ΔIBB-importin α3 or GST-ΔIBB-Kap60 (1 µM) pre-incubated with RCC1/yRCC1 ([…]) ~60 min at 4 °C, then bound to glutathione beads, washed three times, eluted with 25 mM reduced glutathione; SDS-PAGE, Coomassie, quantified in triplicate, WT = 100%; both purified.

As to “His-tagged ΔIBB-importin α3 (from UniProt O00629) (domain or fragment)”, the binding entry in test [1] and in test [2] was “binds” each time.

With “RCC1 (human, cleaved from GST, in the purified importin α3:RCC1 complex) (from UniProt P18754 1-421)”, in test [3], the binding entry is on record as “binds”.

As for “yRCC1 (yeast RCC1, cleaved from GST, in the purified Kap60:yRCC1 complex) (from UniProt P21827 1-482)”, the binding entry in test [4] was “binds”.

Take “yRCC1 (yeast RCC1, wild type, free protein) (from UniProt P21827 1-482)”: the binding result in test [5] was “binds”.

For the substance “yRCC1 E34A/D35A (from UniProt P21827 1-482)”, in test [5], the binding entry is listed as “binds”.

On to yRCC1 K20A (from UniProt P21827 1-482), for which the binding entry in test [5] was “no binding (tested: 1 μM ΔIBB-Kap60 and 0.75 μM yRCC1)”.

For yRCC1 R4A (from UniProt P21827 1-482), the binding entry in test [5] is “no binding (tested: 1 μM ΔIBB-Kap60 and 0.75 μM yRCC1)”.

For “yRCC1 R4A/K20A (from UniProt P21827 1-482)”, the binding entry in test [5] is “no binding (tested: 1 μM ΔIBB-Kap60 and 0.75 μM yRCC1)”.

For the substance “Δ10-yRCC1 (from UniProt P21827 11-482) (domain or fragment)”, in test [5], the binding result is “no binding (tested: 1 μM ΔIBB-Kap60 and 0.75 μM yRCC1)”.

On to “Δ23-yRCC1 (from UniProt P21827 24-482) (domain or fragment)”, for which, in test [5], the binding entry is “no binding (tested: 1 μM ΔIBB-Kap60 and 0.75 μM yRCC1)”.
